Experimental data as given in patent US8377424B2, “Treatment of periodontal disease” (Mars, Incorporated, priority 1996, dated 2013).
At least one compound was matched to its structure with a doubt left. Residues, ends and D or L forms follow the SMILES beside them.

System: NO production by human umbilical vein endothelial cells (HUVEC)
Assay: NO production by HUVEC (Griess reaction)
Assay type: cell-based
Settings: bradykinin 25, 50 and 100 nM, 24 hr

## NC(N)=NCCC[C@H](NC(=O)[C@H](Cc1ccccc1)NC(=O)[C@@H]1CCCN1C(=O)[C@H](CO)NC(=O)[C@H](Cc1ccccc1)NC(=O)CNC(=O)[C@@H]1CCCN1C(=O)[C@@H]1CCCN1C(=O)[C@@H](N)CCCN=C(N)N)C(=O)O [bradykinin] (H-RPPGFSPFR-OH)
  NO production by HUVEC: dose dependent release of NO
